# Assay results taken from the supplement of paper PMC8728848.
# Some of the results follow.
# B1: SspB A3vp1 (Streptococcus gordonii), Q54186 (protein)
# chain: MTNEADYQAKLAAYQTELARVQKANADAKATYEKAVEDNKAKNAAIKAENEEIKQRNAVAKTDYEAKLAKYEADLAKYKKEFAAYTAALAEAESKKKQDGYLSEPRSQSLNFKSEPNAIRTIDSSVHQYGQQELDALVKSWGISPTNPDRKKSRAYSYFNAINSNNTYAKLVLEKDKPVDVTYTGLKNSSFNGKKISKVVYTYTLKETGFNDGTKMTMFASSDPTVTAWYNDYFTSTNINVKVKFYDEEGQLMNLTGGLVNFSSLNRGNGSGAIDKDAIESVRNFNGRYIPISGSSIKIHENNSAYADSSNAEKSLGARWNTSEWDTTSSPNNWYGAIVGEITQSEISFNMASSKSGNIWFAFNSNINAIGVPTKPVAPTAPTQPMYETEKPLEPAPVAPSYENEPTPPVKTPDQPEPSKPAAALEHHHHHH
# Tests used:
# Assay in all cases: glycan array binding signal (z-score within array); higher = stronger binding
# Details in all cases: glycan notation: IUPAC condensed, linker removed
# Fuc(a1-2)Gal = target: Fuc(a1-2)Gal
# In short: (§1)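 Arrays were curated from the Consortium for Functional Glycomics database, 3228 in total, and kept only where the protein sequence was available. Binding is expressed as a within-array Z-score. This score was averaged across arrays of the same protein sequence at different concentrations or buffers and across linkers, and negative values can be read as non-binding.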
# Fuc(a1-2)Gal(b1-3)GalNAc = target: Fuc(a1-2)Gal(b1-3)GalNAc
# In short: as §1
# [1] = target: Fuc(a1-2)Gal(b1-3)GalNAc(a1-3)[Fuc(a1-2)]Gal(b1-4)Glc
# In short: as §1
# [2] = target: Fuc(a1-2)Gal(b1-3)GalNAc(a1-3)[Fuc(a1-2)]Gal(b1-4)GlcNAc
# In short: as §1
# [3] = target: Fuc(a1-2)Gal(b1-3)GalNAc(b1-3)Gal
# In short: as §1
# [4] = target: Fuc(a1-2)Gal(b1-3)GalNAc(b1-3)Gal(a1-4)Gal(b1-4)Glc
# In short: as §1
# [5] = target: Fuc(a1-2)Gal(b1-3)GalNAc(b1-4)[Neu5Ac(a2-3)]Gal(b1-4)Glc
# In short: as §1
# Fuc(a1-2)Gal(b1-3)GlcNAc = target: Fuc(a1-2)Gal(b1-3)GlcNAc
# In short: as §1
# [6] = target: Fuc(a1-2)Gal(b1-3)GlcNAc(b1-2)Man(a1-3)[Fuc(a1-2)Gal(b1-3)GlcNAc(b1-2)Man(a1-6)]Man(b1-4)GlcNAc(b1-4)GlcNAc
# In short: as §1
# [7] = target: Fuc(a1-2)Gal(b1-3)GlcNAc(b1-2)Man(a1-3)[Fuc(a1-2)Gal(b1-3)GlcNAc(b1-2)Man(a1-6)]Man(b1-4)GlcNAc(b1-4)[Fuc(a1-6)]GlcNAc
# In short: as §1
# [8] = target: Fuc(a1-2)Gal(b1-3)GlcNAc(b1-3)Gal(b1-4)Glc
# In short: as §1
# [9] = target: Fuc(a1-2)Gal(b1-3)GlcNAc(b1-3)GalNAc
# In short: as §1
# [10] = target: Fuc(a1-2)Gal(b1-3)GlcNAc(b1-3)[Fuc(a1-2)Gal(b1-3)GlcNAc(b1-6)]GalNAc
# In short: as §1
# [11] = target: Fuc(a1-2)Gal(b1-3)GlcNAc(b1-3)[Gal(b1-4)GlcNAc(b1-6)]Gal(b1-4)Glc
# In short: as §1
# [12] = target: Fuc(a1-2)Gal(b1-3)GlcNAc(b1-3)[Neu5Ac(a2-6)Gal(b1-4)GlcNAc(b1-6)]Gal(b1-4)Glc
# In short: as §1
# [13] = target: Fuc(a1-2)Gal(b1-3)GlcNAc6S
# In short: as §1
# [14] = target: Fuc(a1-2)Gal(b1-3)[Fuc(a1-4)]GlcNAc
# In short: as §1
# [15] = target: Fuc(a1-2)Gal(b1-3)[Fuc(a1-4)]GlcNAc(b1-2)Man(a1-3)[Fuc(a1-2)Gal(b1-3)[Fuc(a1-4)]GlcNAc(b1-2)Man(a1-3)]Man(b1-4)GlcNAc(b1-4)GlcNAc
# In short: as §1
# [16] = target: Fuc(a1-2)Gal(b1-3)[Fuc(a1-4)]GlcNAc(b1-2)Man(a1-3)[Fuc(a1-2)Gal(b1-3)[Fuc(a1-4)]GlcNAc(b1-2)Man(a1-6)]Man(b1-4)GlcNAc(b1-4)[Fuc(a1-6)]GlcNAc(b1-4)[Fuc(a1-6)]GlcNAc
# In short: as §1
# [17] = target: Fuc(a1-2)Gal(b1-3)[Fuc(a1-4)]GlcNAc(b1-3)[Fuc(a1-3)[Gal(b1-4)]GlcNAc(b1-6)]Gal(b1-4)Glc
# In short: as §1
# [18] = target: Fuc(a1-2)Gal(b1-3)[Fuc(a1-4)]GlcNAc(b1-3)[Gal(b1-4)GlcNAc(b1-6)]Gal(b1-4)Glc
# In short: as §1
# [19] = target: Fuc(a1-2)Gal(b1-4)Fuc(a1-3)]GlcNAc(b1-2)Man(a1-3)[Fuc(a1-2)Gal(b1-4)[Fuc(a1-3)]GlcNAc(b1-2)Man(a1-6)]Man(b1-4)GlcNAc(b1-4)GlcNAc
# In short: as §1
# Fuc(a1-2)Gal(b1-4)Glc = target: Fuc(a1-2)Gal(b1-4)Glc
# In short: as §1
# Fuc(a1-2)Gal(b1-4)Glc6S = target: Fuc(a1-2)Gal(b1-4)Glc6S
# In short: as §1
# Fuc(a1-2)Gal(b1-4)GlcNAc = target: Fuc(a1-2)Gal(b1-4)GlcNAc
# In short: as §1
# [20] = target: Fuc(a1-2)Gal(b1-4)GlcNAc(b1-2)Man
# In short: as §1
# [21] = target: Fuc(a1-2)Gal(b1-4)GlcNAc(b1-2)Man(a1-3)[Fuc(a1-2)Gal(b1-4)GlcNAc(b1-2)Man(a1-6)]Man(b1-4)GlcNAc(b1-4)GlcNAc
# In short: as §1
# [22] = target: Fuc(a1-2)Gal(b1-4)GlcNAc(b1-2)Man(a1-3)[Fuc(a1-2)Gal(b1-4)GlcNAc(b1-2)Man(a1-6)]Man(b1-4)GlcNAc(b1-4)[Fuc(a1-6)]GlcNAc
# In short: as §1
# [23] = target: Fuc(a1-2)Gal(b1-4)GlcNAc(b1-2)[Fuc(a1-2)Gal(b1-4)GlcNAc(b1-4)]Man(a1-3)[Fuc(a1-2)Gal(b1-4)GlcNAc(b1-2)Man(a1-6)]Man(b1-4)GlcNAc(b1-4)GlcNAc
# In short: as §1
# [24] = target: Fuc(a1-2)Gal(b1-4)GlcNAc(b1-3)Gal(b1-4)GlcNAc
# In short: as §1
binder,measurement,setting,value
B1,glycan array binding signal (z-score),Fuc(a1-2)Gal,-0.712
same,glycan array binding signal (z-score),Fuc(a1-2)Gal(b1-3)GalNAc,-0.908
same,glycan array binding signal (z-score),[1],-0.395
same,glycan array binding signal (z-score),[2],-0.064
same,glycan array binding signal (z-score),[3],-0.686
same,glycan array binding signal (z-score),[4],-0.246
same,glycan array binding signal (z-score),[5],0.065
same,glycan array binding signal (z-score),Fuc(a1-2)Gal(b1-3)GlcNAc,-0.862
same,glycan array binding signal (z-score),[6],6.26
same,glycan array binding signal (z-score),[7],0.989
same,glycan array binding signal (z-score),[8],-0.491
same,glycan array binding signal (z-score),[9],-0.383
same,glycan array binding signal (z-score),[10],1.55
same,glycan array binding signal (z-score),[11],-1.08
same,glycan array binding signal (z-score),[12],-0.004
same,glycan array binding signal (z-score),[13],-0.03
same,glycan array binding signal (z-score),[14],0.448
same,glycan array binding signal (z-score),[15],0.591
same,glycan array binding signal (z-score),[16],0.066
same,glycan array binding signal (z-score),[17],-0.146
same,glycan array binding signal (z-score),[18],-0.726
same,glycan array binding signal (z-score),[19],0.17
same,glycan array binding signal (z-score),Fuc(a1-2)Gal(b1-4)Glc,0.039
same,glycan array binding signal (z-score),Fuc(a1-2)Gal(b1-4)Glc6S,-0.225
same,glycan array binding signal (z-score),Fuc(a1-2)Gal(b1-4)GlcNAc,-0.265
same,glycan array binding signal (z-score),[20],-0.22
same,glycan array binding signal (z-score),[21],1.7
same,glycan array binding signal (z-score),[22],-0.372
same,glycan array binding signal (z-score),[23],0.153
same,glycan array binding signal (z-score),[24],-0.772

# At a glance, some entries already given.
binder,measurement,setting,value
B1,glycan array binding signal (z-score),[1],-0.395
same,glycan array binding signal (z-score),[2],-0.064
same,glycan array binding signal (z-score),[3],-0.686
same,glycan array binding signal (z-score),[4],-0.246
same,glycan array binding signal (z-score),[5],0.065
same,glycan array binding signal (z-score),Fuc(a1-2)Gal(b1-3)GlcNAc,-0.862
same,glycan array binding signal (z-score),[6],6.26
same,glycan array binding signal (z-score),[7],0.989
